The chains are these.
B1: il10ra_site1_sap_24_mot_HHH_b2_02933_000000199_0001_1_19_H_._HHH_b1_00824_0001_0000100001_0000002_0_0001 (protein)
chain: SSSSSDEEVEELLEEAKELAEEGDPRKAIKVLAEAVRLAIHNGDKEALQAVWRLVEELARSSSSS
B2: il10ra_site1_sap_18_mot_HHH_b2_03425_000000200_0001_22_39_H_._HHH_b1_04958_af2_0001_0000100003_0000001_0_0001 (protein)
chain: SSSSSDEEEERIEELLEEAKEVTDHEEVLRILFEAVHLAIRISNPELLHEIWRLIQKLASSSSSS
B3: il10ra_site1_normal_mot_HHH_b1_08477_000000091_0001_40_57_H_._HHH_b2_05760_af2_0002_0000200005_0000001_0 (protein)
chain: SSSDEEAEEAARRILESAQRAEELGDPELAKQALRFAAALARYAGDPELLEEIERLLEELGSSSS
B4: il10ra_site1_sap_19_mot_HHH_b1_03333_000000091_0001_1_17_H_._HHH_b1_05619_af2_0001_0000100002_0000001_0_0001 (protein)
chain: SSSSDETQEVYELLREVVELHHEGNPEEAREVLREALELAQELGNWTFRMQAEYLERLINSSSSS
B5: il10ra_site1_sap_22_mot_HHH_b1_01585_000000217_0001_1_18_H_._HHH_b2_04160_af2_0001_0000200006_0000001_0_0001 (protein)
chain: SSSSSSDEVEELLEEAKELAEKGNPEEALELLQRAVRLAIRAKDPELLQEVWEVVKRLSSSSSSS
B6: il10ra_site1_normal_mot_HHH_b2_06752_000000207_0001_1_21_H_._HHH_b2_00819_af2_0001_0000200016_0000001_0_af2pred_0001 (protein)
chain: SSSSDAREKALRLALEALEIAVRLGDEEAVKRALRLIEHLARLLNDEEAQEIVEEVKEELSSSSS
B7: il10ra_site1_sap_19_mot_HHH_b2_03438_af2_000000049_0001_18_34_H_._HHH_b2_00028_af2_0001_0000700019_0000001_0_0001 (protein)
chain: SSSSSDAVHRVYELLREAMEALANGNPEEARELLEEAEELLEENNNKAMLVLIEWLQKRVSSSSS
B8: il10ra_site1_normal_mot_HHH_b1_02997_000000220_0001_39_52_H_._HHH_b1_04543_af2_0001_0000100002_0000001_0_af2pred_0001 (protein)
chain: SSSSDNREILKIIREAAEARHRGDPEEAEELVEEAVRLAEEEGNKLALVIARFLLKDIRQGSSSS
B9: il10ra_site1_sap_23_mot_39ab2cb694c8b9c1dc7e65c0d672c93e_0001_000000036_0001_53_65_H_._HHH_b1_07337_0001_0000100009_0000001_0_0001 (protein)
chain: SSSSDEEYKEVKRLIEEIAEALRNNDEELVRELLEELRELAEEINNPAAEFSLRILEEALNSSSS
B10: il10ra_site1_sap_19_mot_8756ee2cf497b5429c717dfc0c0bcfd6_0001_000000186_0001_1_13_H_._HHH_b1_06619_af2_0001_0000800038_0000001_0_0001 (protein)
chain: SSSSTEERRELYRLSREAAELASDGNEEEAREVLEEVIELARELGNWAVLMNAEFLLKIHSSSSS
B11: il10ra_site1_sap_25_mot_HHH_b2_05540_000000178_0001_1_18_H_._ems_p1-15H-GBL-16H-GABBL-16H_0381_0001_0001_0001_0001_0000500025_0000002_0_0001 (protein)
chain: SSSSSDMEELYRRIAELLRRLREVSPEEREELLREAKELAEELNNEYLKRAIEHMARAVNSSSSS
B12: il10ra_site1_normal_mot_HHH_b2_08186_000000021_0001_43_56_H_._HHH_b2_05014_af2_0002_0000100001_0000002_0 (protein)
chain: SSSSDEEELRELIEEAEELLERGNPEEALEVVLRALQLAFELSNAETLQRIWELLKRIATSSSSS
B13: il10ra_site1_normal_mot_HHH_b1_00682_000000211_0001_1_20_H_._HHH_b2_08013_af2_0001_0000100007_0000001_0 (protein)
chain: SSSSDEAYRVAREAVERASELLERGNPEEAEELLEEAIRIVEELGNEAAVFSLRHLLRVVRSSSS
B14: il10ra_site1_normal_mot_HHH_b1_06789_af2_000000041_0001_1_20_H_._HHH_b1_07672_0001_0000200009_0000002_0 (protein)
chain: SSSSSNTRWLARQAFRALKRAIELGDEERIEHVAEILENLAEFANDPYARELVEEARELLSSSSS
B15: il10ra_site1_normal_mot_HHH_b1_08508_000000230_0001_42_56_H_._HHH_b2_01495_0002_0000100004_0000001_0 (protein)
chain: SSSSTEEIREAYRLSREAAEALTEGDPEEARELLEEAEELLREAGNLVVLHNVEYLLRVLDSSSS
B16: il10ra_site1_normal_mot_HHH_b1_02062_000000185_0001_1_20_H_._HHH_b1_07293_0001_0000100005_0000001_0 (protein)
chain: SSSSSEELRRAYELSRRIAELDSEGDEEEAKKLLEELQELAEELNNFVLKANIKLLEQQLSSSSS
B17: il10ra_site1_normal_mot_HHH_b1_01880_000000285_0001_23_39_H_._HHH_b2_02582_0001_0000400020_0000001_0_af2pred_0001 (protein)
chain: SSSSSSDEFEELLEEAKRLAEELGDEEIKIAIRVAERLYKLKGDPKIKWALEALLENLSSSSSSS
B18: il10ra_site1_normal_mot_HHH_b1_00456_000000263_0001_1_17_H_._HHH_b2_07290_0001_0000400032_0000001_0_af2pred_0001 (protein)
chain: SSSSSSDEEEVEELLEEAKRIEDPEERAEVLDEAYLVALEHNNPELEELVREVAKELRSSSSSSS

18 molecules from PMC10163288 can be followed below.

Some of the results follow.

The target in the assay is il10ra, Q13651. In words: yeast display titration.
B1: the “apparent Kd” value was “inactive: no binding seen”.

Regarding B2, the “apparent Kd” value was “inactive: no binding seen”.

Regarding B3, the “apparent Kd” value was “inactive: no binding seen”. Then B4, with “inactive: no binding seen”; and B5, with “inactive: no binding seen”. The result for B6 reads “inactive: no binding seen”; that for B7, “inactive: no binding seen”. Then B8, with “inactive: no binding seen”. B9: the “apparent Kd” value was “inactive: no binding seen”.

On to B10, for which the “apparent Kd” value is “inactive: no binding seen”. The result for B11 reads “inactive: no binding seen”; that for B12, “inactive: no binding seen”. B13: the “apparent Kd” value is “inactive: no binding seen”. Take B14: the “apparent Kd” value is “inactive: no binding seen”. Then B15, with “inactive: no binding seen”; and B16, with “inactive: no binding seen”; and B17, with “inactive: no binding seen”. Then B18, with “inactive: no binding seen”.
